From PMC10338684
Results are given in words; binding and its absence hold for the method and conditions named. Binding seen in cells or lysates may run through a third protein. Here binding means that the protein was enriched with, or labelled near, the bait; the list need not be complete. For some assays here: A no says only that the protein was not detected with the bait. For some assays here: Tags and fused reporters may be left off the sequences shown.

Protein sequences, listed by entry. Tags and fused reporters are not part of them.
UniProt Q9M658: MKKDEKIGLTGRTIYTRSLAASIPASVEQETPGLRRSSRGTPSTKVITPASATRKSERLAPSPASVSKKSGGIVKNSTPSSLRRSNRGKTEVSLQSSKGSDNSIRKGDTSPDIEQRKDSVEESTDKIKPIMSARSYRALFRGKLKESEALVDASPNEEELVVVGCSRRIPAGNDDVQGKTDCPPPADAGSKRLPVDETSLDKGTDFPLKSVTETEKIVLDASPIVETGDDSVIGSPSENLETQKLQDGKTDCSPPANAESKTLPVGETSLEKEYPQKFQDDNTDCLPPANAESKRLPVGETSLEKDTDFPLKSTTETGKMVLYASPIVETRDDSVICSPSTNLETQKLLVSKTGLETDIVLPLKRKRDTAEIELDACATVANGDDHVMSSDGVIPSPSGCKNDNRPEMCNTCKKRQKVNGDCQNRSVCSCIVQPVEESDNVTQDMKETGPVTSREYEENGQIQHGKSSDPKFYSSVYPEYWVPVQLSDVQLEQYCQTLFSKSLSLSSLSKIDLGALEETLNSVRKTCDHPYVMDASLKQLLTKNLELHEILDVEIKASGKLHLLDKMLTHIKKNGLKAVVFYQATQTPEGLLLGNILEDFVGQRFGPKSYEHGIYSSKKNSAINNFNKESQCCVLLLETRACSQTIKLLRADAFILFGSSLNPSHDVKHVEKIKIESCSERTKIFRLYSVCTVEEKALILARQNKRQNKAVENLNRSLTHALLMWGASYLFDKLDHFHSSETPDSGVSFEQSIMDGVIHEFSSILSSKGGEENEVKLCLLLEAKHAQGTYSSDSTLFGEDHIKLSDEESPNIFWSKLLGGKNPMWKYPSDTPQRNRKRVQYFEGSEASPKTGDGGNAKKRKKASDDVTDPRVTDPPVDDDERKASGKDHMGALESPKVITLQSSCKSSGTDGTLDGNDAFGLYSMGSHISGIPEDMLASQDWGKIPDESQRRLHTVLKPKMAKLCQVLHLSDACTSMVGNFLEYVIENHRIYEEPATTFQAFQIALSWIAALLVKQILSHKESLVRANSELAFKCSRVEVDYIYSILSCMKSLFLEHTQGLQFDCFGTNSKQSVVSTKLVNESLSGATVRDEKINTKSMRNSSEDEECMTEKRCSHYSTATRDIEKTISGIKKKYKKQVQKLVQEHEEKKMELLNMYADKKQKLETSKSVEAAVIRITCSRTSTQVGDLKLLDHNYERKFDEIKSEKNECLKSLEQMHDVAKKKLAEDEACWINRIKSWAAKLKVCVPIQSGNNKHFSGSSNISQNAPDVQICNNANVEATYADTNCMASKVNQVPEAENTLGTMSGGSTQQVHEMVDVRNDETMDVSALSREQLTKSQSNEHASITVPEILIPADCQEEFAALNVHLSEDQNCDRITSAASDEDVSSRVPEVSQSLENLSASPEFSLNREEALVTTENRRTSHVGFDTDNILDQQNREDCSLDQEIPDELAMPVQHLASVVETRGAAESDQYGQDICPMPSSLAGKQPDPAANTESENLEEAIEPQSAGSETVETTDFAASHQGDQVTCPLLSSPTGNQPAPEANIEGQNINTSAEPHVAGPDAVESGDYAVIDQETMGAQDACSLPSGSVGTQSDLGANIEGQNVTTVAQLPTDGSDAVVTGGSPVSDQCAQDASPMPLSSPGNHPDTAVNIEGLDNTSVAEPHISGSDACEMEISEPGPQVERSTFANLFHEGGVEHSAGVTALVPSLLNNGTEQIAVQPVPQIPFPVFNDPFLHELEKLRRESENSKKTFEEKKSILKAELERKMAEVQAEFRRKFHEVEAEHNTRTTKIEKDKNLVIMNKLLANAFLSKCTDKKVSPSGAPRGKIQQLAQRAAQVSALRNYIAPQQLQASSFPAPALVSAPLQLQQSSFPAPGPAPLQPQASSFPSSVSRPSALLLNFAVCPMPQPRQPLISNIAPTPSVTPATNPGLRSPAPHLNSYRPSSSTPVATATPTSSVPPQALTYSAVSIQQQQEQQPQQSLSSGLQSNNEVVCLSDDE

Experiments:
Assay in all cases: affinity purification with mass spectrometry; native IP-MS from unopened flower buds of FLAG-tagged transgenic plants, Col-0 as control; IP buffer 50 mM Tris-HCl pH 8.0, 150 mM NaCl, 5 mM EDTA, 10% glycerol, 0.1% Tergitol; anti-FLAG M2 magnetic beads, 4 °C, 2 h; eluted with 3xFLAG peptides
[1] = target: T1, PHD1-FLAG (Arabidopsis thaliana) (UniProt B3H578)
T1 sequence: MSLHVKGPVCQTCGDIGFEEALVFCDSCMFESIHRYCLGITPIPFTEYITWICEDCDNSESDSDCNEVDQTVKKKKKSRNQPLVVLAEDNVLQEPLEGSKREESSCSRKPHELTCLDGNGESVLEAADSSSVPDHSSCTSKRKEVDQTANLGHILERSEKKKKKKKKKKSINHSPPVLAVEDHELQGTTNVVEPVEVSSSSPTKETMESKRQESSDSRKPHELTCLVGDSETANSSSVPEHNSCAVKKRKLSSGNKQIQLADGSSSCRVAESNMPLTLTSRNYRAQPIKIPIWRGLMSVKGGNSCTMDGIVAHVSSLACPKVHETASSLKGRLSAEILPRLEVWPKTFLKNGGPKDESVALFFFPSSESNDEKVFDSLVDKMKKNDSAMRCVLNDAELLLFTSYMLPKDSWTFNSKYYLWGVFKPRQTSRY

[2] = target: T2, PIAL2-FLAG (Arabidopsis thaliana) (UniProt F4JYG0)
T2 sequence: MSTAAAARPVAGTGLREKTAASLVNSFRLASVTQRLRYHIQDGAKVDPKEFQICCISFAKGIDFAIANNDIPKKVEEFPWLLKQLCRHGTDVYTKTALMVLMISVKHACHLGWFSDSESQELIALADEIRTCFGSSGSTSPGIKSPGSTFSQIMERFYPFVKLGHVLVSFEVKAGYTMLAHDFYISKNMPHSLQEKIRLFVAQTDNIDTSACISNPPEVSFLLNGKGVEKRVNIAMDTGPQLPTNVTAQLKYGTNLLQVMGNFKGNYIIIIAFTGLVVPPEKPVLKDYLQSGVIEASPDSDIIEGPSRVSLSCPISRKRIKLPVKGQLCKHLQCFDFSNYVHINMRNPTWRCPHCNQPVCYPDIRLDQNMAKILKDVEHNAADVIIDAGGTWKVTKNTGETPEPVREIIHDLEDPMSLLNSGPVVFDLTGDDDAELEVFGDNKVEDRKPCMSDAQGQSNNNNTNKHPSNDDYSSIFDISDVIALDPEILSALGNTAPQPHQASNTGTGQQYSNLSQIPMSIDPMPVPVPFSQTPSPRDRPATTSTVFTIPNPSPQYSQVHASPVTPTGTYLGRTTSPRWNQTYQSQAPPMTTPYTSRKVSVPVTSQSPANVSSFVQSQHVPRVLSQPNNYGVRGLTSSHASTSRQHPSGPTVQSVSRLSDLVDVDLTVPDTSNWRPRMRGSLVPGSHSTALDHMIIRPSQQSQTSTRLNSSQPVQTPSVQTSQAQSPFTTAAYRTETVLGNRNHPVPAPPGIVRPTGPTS

[3] = target: T3, AIPP3-FLAG (Arabidopsis thaliana) (UniProt Q8RXT5)
T3 sequence: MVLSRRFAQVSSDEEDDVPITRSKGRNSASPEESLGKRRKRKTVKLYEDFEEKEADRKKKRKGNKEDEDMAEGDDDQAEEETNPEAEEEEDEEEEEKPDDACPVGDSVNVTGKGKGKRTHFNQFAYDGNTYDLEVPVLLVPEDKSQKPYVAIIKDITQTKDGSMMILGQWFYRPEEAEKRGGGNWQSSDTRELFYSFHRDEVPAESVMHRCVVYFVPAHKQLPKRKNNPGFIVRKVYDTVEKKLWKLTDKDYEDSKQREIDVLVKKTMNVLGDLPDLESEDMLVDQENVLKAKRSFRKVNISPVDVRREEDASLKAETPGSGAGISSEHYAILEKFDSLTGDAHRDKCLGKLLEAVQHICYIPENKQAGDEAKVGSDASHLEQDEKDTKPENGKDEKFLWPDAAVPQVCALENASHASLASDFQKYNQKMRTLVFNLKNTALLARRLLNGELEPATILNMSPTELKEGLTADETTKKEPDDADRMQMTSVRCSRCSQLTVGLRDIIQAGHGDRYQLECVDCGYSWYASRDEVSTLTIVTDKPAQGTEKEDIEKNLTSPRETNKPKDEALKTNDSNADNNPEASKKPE

[4] = target: MOM2-FLAG (Arabidopsis thaliana)

MOM2, endogenous
binding [1]: binds | binding [2]: binds | binding [3]: binds

MOM1 (MORPHEUS' MOLECULE1), endogenous (from UniProt Q9M658 1-2001)
binding [2]: binds | binding [3]: binds

B1: CPL2, endogenous (protein, UniProt Q5YDB5 1-770)
chain: MNRLGHKSVVYHGDLRLGELDVNHVSSSHEFRFPNDEIRIHHLSPAGERCPPLAILQTIASFAVRCKLESSAPVKSQELMHLHAVCFHELKTAVVMLGDEEIHLVAMPSKEKKFPCFWCFSVPSGLYDSCLRMLNTRCLSIVFDLDETLIVANTMKSFEDRIEALKSWISREMDPVRINGMSAELKRYMDDRMLLKQYIDNDYAFDNGVLLKAQPEEVRPTSDGQEKVCRPVIRLPEKNTVLTRIKPEIRDTSVLVKLRPAWEELRSYLTAKTRKRFEVYVCTMAERDYALEMWRLLDPEAHLISLKELRDRIVCVKPDAKKSLLSVFNGGICHPKMAMVIDDRMKVWEDKDQPRVHVVSAYLPYYAPQAETALVVPHLCVARNVACNVRGYFFKEFDESLMSSISLVYYEDDVENLPPSPDVSNYVVIEDPGFASNGNINAPPINEGMCGGEVERRLNQAAAADHSTLPATSNAEQKPETPKPQIAVIPNNASTATAAALLPSHKPSLLGAPRRDGFTFSDGGRPLMMRPGVDIRNQNFNQPPILAKIPMQPPSSSMHSPGGWLVDDENRPSFPGRPSGLYPSQFPHGTPGSAPVGPFAHPSHLRSEEVAMDDDLKRQNPSRQTTEGGISQNHLVSNGREHHTDGGKSNGGQSHLFVSALQEIGRRCGSKVEFRTVISTNKELQFSVEVLFTGEKIGIGMAKTKKDAHQQAAENALRSLAEKYVAHVAPLARETEKGPENDNGFLWESSEDVSNKGLEEEAPKENISEL
binding [1]: no binding | binding [2]: no binding | binding [4]: no binding | binding [3]: binds

B2: PHD2, endogenous (protein, UniProt F4KE59 1-1311)
chain: MADRRVGKRQMGQRGFSKVESGTCNVCSAPCSSCMHRNVGFTGSKLDESSDENCHGVVGSQCSVNEDDLLPSSMVNAHKSLNNTASEASNLVNSSHDALSENAESKETIRCSGISDDSGAAAMTSKPSLSGSRMKHKVSASANMLDQSSNCIEDQEDGILSADRAKQLKSGCSNNEIGNKDLADGSALNSDPIPGGSRKDEVKLESLQNPSSNHDDRVSSEKGNFKEKSRPGGNKERQEPSVEGSTRSGENRKDGKSSKSSSSNSSAVSESESDDSEMVEHDVKVCDICGDAGREDLLAICSGCSDGAEHTYCMREMLDEVPEGDWLCEECAEEAEKQKQEAKRKRETEVTFNTYSSGKRHADKIEAAPDAKRQVVEASTGSPKKSILPRVGALSRETSFKGLDRLRGKLNHQTSFSDDTESARSAGSQLQPPKGAFLKSSSFNCSSSKPKVQLMDDAIHPRQKTGKEDTALDLKVGGFRNVGKSMPSRTTDAGNSGGSDSQAKMLGSKVYHSQEGKSLKQVKDRNREANASASSIDQKLKSRGNSSVSHANNNRDLKGLQSDGKRGNLTKQVSNLSRNRLENSVVSGGDISTNEKCSASEQSSSQADCKDELPSTSCTGEGMPNHGTVALQDGLPRSRVPREVGKKSKEAFSKRQRSSLLAGAKGLPSSQKGGQTAESSDTSGVSDSDLSTTKNVKEDLNKGNRLRAAVDAALRKKPSFGKNRVLEQSDASLVANVDSSSEKTLRNQLPSKMHKNHVSHEGLQGGHPILWPTSDPYKQTIVTNEKQLIFPGADTIPSRLVEPEVSFPAVKPVMRDLPLVPSPVMLRSSAIPDHEFIWQGDLEVRKIINQSAMHSGIQAHLSTLASPRVAEVVNKFPETFSLNEVPRKSTWPTQFEKLGTKEAHIALFFFAKDTESYERNYKPLVDNMIKNDLALKGNLDNVDLLIFASNQLPSNCQRWNMLYFLWGVFQGRKETNPQKNTSLPTSNVLPRDRDPKELCQTSSPSKHLEKGSSLRESSSNGIETRNGTDARSHENPNNRESSIERSPSKKEDIALKVEEAGVNHIPPQVTGSNSGDSLVRKVQKVEEQELGGRKDLPLTVMGSGIQSHGQDNPLEKDLNSSQASHRKRPLWELSNPANENSSAINQKVELNNDGLCEGSPNKKLKTENGSSSLCRDTSGHDSGIMKKSPKVVFPLDLNDDSEMVDNLSPLGNDENNNNRRLISGTVPNLELALGAEETTEATMGLLPFLSRSSNSGEQSNNSMNKEKQKADEEEEDDAEVAASLSLSLSFPGTEERKNVNTPLFLFRDLPR
binding [1]: no binding | binding [2]: no binding | binding [4]: no binding | binding [3]: binds

B3: PHD3, endogenous (protein, UniProt F4IYH6 1-994)
chain: MADRRVGNRPMGRRGRLEIQSGTCNVCSAPCSSCMHHNAEFSGSKSDESSDENSHGVLASQCSFNGDNLLRSSGVNAPGSSHNTSSEASHLVNSNHDTSSENAESKEIIRSSDISHGPLLDRPHKDQDSMKVDSCNDHQARSTLGQGKVKEKSGAKNNEEKKNTLTGSSKHSGPRVGKSGENVLLNKADESNTSAMSDSESENDPEMLELDVKVCDTCGDAGREDLLAICSRCSDGAEHTYCMRVMLKKVPKGYWLCEECKFAEKAEKHKLETKRKRESEVNVNTQISSKRHIDKFEAVPDSKRLAVGAQIGSPKRSVLPRMSTLSRETSFKGLEKPTRKLAHYSSFNSHSSDDTESTRSTDSQLQSPKGSFLKSNSFNSLSSRSKVRPVDDDMLPRQKTGNENSSLEVKEGFSKNVGKSMSSRCIDVGSSNCNDSKVKGSKQLKDWSTEANPSASISRGNSSIPYAKSPRDLKDLQSDGKQGSLSKQARHLSRNRLEDIVASVGDSSKNEKCSSSEQISSEAKCKDELAQVDGVPRSREFREAGEKTKDAVGNHQKRNIGEDNNKGNRLRAAVDAALRKKPSFSKNRGLEQSDLPPVSNVDSGCNKALKCLSSKVPVIRDWPVGFQGLPGGHPNLRTDKQTNTVNEKQFTLAGTDATTASQSVEPEVNDPSVQSVMRDLPVAAPNVLSTTSAIPKPEYIWQGDLEVQKSRNLSAMHSGIQAYLSTLASPKVVEVVKQFPEKVTLNEVPRLSSWPAQFQDTGAKEQHVALFFFAKDIESYEKNYKPLVDNMIQKDLALKGNLEGVELLIFASNQLPQDCQRWNMLFFLWGVFRGKKESCSNPPKNTPLPASCVSPNRDTFRHENPSNKKSLTDRTLSRMQSCMKEEDAKEGKACSGTEKENAFSVSYGEGEVDVETEEGEIGVSPQLKYEKTAGPGTVKSADMNQRVNVDDLNKEGLCEGPANKKLKTVTGVETGCSIVRRDTSVHKFASRKFV
binding [1]: no binding | binding [2]: no binding | binding [4]: no binding | binding [3]: binds
